Test results published in publication PMC4033603.
These are yes or no findings as the source states them, for the method shown. Binding seen in cells or lysates may run through a third protein. Some entries that bind do so weakly or less than the wild type.

Chains of the proteins cited; added tags and fusions are not shown. Residues count along the entry.
UniProt P46531, residues 19-2555: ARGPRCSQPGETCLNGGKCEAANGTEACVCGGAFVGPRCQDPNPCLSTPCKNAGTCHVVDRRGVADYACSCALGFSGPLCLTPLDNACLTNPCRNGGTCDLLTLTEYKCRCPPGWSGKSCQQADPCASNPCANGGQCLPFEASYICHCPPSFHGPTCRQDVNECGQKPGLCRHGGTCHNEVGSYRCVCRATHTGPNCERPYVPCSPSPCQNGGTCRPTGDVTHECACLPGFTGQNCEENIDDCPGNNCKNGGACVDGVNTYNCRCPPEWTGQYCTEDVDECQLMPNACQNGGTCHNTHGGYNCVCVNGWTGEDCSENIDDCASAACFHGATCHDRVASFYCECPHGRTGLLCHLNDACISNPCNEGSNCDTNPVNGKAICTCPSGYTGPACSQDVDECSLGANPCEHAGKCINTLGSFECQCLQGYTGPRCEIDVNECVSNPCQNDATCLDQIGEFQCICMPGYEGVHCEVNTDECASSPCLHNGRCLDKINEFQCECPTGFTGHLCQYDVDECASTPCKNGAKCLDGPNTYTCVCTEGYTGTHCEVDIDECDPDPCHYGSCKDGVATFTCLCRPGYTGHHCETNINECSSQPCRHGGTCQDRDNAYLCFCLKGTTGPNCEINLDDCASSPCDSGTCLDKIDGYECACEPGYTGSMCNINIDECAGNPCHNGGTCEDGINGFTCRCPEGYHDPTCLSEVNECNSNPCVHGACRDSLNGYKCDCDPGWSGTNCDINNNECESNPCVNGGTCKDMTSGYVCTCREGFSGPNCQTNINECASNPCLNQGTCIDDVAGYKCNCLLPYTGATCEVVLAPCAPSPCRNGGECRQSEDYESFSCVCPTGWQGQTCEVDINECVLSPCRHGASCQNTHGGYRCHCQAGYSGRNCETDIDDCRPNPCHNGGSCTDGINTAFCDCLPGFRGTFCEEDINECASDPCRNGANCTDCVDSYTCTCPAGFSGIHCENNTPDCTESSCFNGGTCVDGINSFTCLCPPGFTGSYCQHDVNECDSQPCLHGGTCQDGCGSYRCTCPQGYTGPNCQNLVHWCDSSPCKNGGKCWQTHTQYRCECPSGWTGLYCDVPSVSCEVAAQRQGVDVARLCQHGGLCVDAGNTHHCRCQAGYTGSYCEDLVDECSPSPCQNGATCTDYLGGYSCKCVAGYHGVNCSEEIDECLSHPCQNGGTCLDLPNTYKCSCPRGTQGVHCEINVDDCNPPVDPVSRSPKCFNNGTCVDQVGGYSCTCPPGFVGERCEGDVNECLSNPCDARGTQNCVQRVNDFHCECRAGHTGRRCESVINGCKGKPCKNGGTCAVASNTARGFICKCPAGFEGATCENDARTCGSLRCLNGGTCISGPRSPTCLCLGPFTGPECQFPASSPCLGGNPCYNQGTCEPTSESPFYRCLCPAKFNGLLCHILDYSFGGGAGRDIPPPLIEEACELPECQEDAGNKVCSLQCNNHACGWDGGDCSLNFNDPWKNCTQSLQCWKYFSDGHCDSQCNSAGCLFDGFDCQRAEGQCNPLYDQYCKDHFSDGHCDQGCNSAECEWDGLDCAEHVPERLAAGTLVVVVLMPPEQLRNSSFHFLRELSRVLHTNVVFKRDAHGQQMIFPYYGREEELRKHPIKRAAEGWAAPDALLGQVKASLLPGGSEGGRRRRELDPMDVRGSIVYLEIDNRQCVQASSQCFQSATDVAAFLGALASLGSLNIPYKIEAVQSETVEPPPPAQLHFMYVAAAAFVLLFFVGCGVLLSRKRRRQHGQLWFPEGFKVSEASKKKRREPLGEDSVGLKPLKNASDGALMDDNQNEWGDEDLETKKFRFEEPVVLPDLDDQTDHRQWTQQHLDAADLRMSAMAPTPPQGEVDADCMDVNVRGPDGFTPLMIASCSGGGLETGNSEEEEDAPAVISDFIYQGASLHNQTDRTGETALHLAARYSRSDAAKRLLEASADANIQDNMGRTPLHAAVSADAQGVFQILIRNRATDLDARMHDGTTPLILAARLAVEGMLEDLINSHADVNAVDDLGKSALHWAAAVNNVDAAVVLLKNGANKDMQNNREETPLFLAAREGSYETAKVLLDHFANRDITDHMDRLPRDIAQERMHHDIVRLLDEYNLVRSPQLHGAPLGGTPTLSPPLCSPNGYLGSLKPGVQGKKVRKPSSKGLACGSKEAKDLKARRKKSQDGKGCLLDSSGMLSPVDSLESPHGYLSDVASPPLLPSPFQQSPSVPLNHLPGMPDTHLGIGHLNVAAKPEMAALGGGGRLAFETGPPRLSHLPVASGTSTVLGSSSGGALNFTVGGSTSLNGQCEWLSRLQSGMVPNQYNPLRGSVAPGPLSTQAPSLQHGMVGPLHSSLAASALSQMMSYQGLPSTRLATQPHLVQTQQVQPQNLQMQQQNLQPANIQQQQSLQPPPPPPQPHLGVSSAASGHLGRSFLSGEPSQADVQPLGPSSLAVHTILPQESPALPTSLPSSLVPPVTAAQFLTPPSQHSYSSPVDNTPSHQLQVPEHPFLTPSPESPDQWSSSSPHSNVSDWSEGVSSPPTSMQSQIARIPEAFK

Biological target: NOTCH1 (human (endogenous in Jurkat)) (UniProt P46531)
Assay: co-IP; endogenous proteins in whole cell lysates of Jurkat T cells (also mock-infected controls) stimulated with plate-bound anti-human CD3ε and anti-human CD28 for the indicated times; 1% NP-40 lysis buffer (10 mM Tris-HCl pH 7.8, 0.5 mM EDTA, 250 mM NaCl); 2 μg antibody overnight at 4°C, protein G-sepharose; immunoblot

binding: binds
B1: CARMA1 (protein, UniProt Q9BXL7 1-1154)
chain: MPGGGPEMDDYMETLKDEEDALWENVECNRHMLSRYINPAKLTPYLRQCKVIDEQDEDEVLNAPMLPSKINRAGRLLDILHTKGQRGYVVFLESLEFYYPELYKLVTGKEPTRRFSTIVVEEGHEGLTHFLMNEVIKLQQQMKAKDLQRCELLARLRQLEDEKKQMTLTRVELLTFQERYYKMKEERDSYNDELVKVKDDNYNLAMRYAQLSEEKNMAVMRSRDLQLEIDQLKHRLNKMEEECKLERNQSLKLKNDIENRPKKEQVLELERENEMLKTKNQELQSIIQAGKRSLPDSDKAILDILEHDRKEALEDRQELVNRIYNLQEEARQAEELRDKYLEEKEDLELKCSTLGKDCEMYKHRMNTVMLQLEEVERERDQAFHSRDEAQTQYSQCLIEKDKYRKQIRELEEKNDEMRIEMVRREACIVNLESKLRRLSKDSNNLDQSLPRNLPVTIISQDFGDASPRTNGQEADDSSTSEESPEDSKYFLPYHPPQRRMNLKGIQLQRAKSPISLKRTSDFQAKGHEEEGTDASPSSCGSLPITNSFTKMQPPRSRSSIMSITAEPPGNDSIVRRYKEDAPHRSTVEEDNDSGGFDALDLDDDSHERYSFGPSSIHSSSSSHQSEGLDAYDLEQVNLMFRKFSLERPFRPSVTSVGHVRGPGPSVQHTTLNGDSLTSQLTLLGGNARGSFVHSVKPGSLAEKAGLREGHQLLLLEGCIRGERQSVPLDTCTKEEAHWTIQRCSGPVTLHYKVNHEGYRKLVKDMEDGLITSGDSFYIRLNLNISSQLDACTMSLKCDDVVHVRDTMYQDRHEWLCARVDPFTDHDLDMGTIPSYSRAQQLLLVKLQRLMHRGSREEVDGTHHTLRALRNTLQPEEALSTSDPRVSPRLSRASFLFGQLLQFVSRSENKYKRMNSNERVRIISGSPLGSLARSSLDATKLLTEKQEELDPESELGKNLSLIPYSLVRAFYCERRRPVLFTPTVLAKTLVQRLLNSGGAMEFTICKSDIVTRDEFLRRQKTETIIYSREKNPNAFECIAPANIEAVAAKNKHCLLEAGIGCTRDLIKSNIYPIVLFIRVCEKNIKRFRKLLPRPETEEEFLRVCRLKEKELEALPCLYATVEPDMWGSVEELLRVVKDKIGEEQRKTIWVDEDQL
